Experimental findings from PMC5457501 (Nature Communications, 2017) are described below.

The target of the test is PrimPol RPA-binding domain (PrimPol_(480-560)) (human) (UniProt Q96LW4). Briefly: dynamic light scattering; PrimPol RBD at 200 uM, 20 mM HEPES pH 7.5, 80 mM NaCl, 2 mM DTT, 25 C; both purified.

Results are given in words; binding and its absence hold for the method and conditions named.

B1: PrimPol RPA-binding domain (PrimPol_(480-560)) (domain or fragment, human, UniProt Q96LW4 480-560, looked up)
chain: TTDEADETRSNETQNPHKPSPSRLSTGASADAVWDNGIDDAYFLEATEDAELAEAAENSLLSYNSEVDEIPDELIIEVLQE
notes: 15N-enriched for one NMR sample; also called PrimPolRBD; RBD; source: E. coli BL21(pLysS), purified (Ni Sepharose, Q Sepharose, Superdex 75)
B1: the binding entry is “no binding (tested: 200 uM)”.
